The record followed here is doi:10.1101/2023.08.21.554079.

Amino acid sequences for entries named in this document (tags omitted).
UniProt Q03308: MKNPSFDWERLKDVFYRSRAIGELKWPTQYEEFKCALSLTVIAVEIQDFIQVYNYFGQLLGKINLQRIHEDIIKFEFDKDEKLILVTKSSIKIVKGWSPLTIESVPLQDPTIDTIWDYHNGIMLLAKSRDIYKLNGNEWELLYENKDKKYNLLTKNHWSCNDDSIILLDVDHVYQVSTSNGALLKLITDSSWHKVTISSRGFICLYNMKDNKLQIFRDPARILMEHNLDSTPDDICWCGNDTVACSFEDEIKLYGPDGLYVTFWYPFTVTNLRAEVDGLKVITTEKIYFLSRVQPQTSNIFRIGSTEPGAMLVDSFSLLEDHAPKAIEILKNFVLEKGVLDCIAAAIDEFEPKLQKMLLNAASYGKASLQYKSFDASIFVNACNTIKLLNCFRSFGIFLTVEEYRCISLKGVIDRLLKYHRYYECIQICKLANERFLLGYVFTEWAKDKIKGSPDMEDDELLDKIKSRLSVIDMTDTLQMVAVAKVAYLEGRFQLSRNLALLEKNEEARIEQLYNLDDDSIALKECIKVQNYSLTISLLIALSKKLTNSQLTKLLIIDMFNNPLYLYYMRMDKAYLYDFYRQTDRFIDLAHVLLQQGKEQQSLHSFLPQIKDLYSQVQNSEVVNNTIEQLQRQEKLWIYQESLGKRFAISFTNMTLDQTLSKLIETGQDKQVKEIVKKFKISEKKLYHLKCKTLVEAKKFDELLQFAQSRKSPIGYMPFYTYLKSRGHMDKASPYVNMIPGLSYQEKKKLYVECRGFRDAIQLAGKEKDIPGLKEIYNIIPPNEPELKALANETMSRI
UniProt P20795: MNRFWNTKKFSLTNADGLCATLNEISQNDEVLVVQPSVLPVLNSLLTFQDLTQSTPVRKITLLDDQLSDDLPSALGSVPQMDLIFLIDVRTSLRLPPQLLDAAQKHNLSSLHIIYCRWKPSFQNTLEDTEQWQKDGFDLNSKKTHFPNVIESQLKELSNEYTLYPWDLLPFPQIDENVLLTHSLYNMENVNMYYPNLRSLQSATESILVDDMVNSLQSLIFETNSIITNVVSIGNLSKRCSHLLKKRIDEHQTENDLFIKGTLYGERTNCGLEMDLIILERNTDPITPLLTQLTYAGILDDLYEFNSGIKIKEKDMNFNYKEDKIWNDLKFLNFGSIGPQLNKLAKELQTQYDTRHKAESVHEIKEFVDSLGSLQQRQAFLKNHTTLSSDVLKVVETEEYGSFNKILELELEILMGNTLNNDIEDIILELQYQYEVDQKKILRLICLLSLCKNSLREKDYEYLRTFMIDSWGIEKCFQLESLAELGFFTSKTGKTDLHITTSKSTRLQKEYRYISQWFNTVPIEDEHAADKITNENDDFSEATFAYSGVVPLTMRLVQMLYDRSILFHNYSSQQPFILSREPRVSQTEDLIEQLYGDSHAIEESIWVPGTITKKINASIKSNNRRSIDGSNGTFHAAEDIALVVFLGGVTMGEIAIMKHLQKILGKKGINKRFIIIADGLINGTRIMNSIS
UniProt P32939: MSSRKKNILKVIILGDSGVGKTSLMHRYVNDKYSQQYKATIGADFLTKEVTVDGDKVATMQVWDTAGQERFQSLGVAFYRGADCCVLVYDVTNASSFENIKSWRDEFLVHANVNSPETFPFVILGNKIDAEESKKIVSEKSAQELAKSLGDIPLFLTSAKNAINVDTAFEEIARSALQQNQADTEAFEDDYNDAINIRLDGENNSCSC
UniProt P39940: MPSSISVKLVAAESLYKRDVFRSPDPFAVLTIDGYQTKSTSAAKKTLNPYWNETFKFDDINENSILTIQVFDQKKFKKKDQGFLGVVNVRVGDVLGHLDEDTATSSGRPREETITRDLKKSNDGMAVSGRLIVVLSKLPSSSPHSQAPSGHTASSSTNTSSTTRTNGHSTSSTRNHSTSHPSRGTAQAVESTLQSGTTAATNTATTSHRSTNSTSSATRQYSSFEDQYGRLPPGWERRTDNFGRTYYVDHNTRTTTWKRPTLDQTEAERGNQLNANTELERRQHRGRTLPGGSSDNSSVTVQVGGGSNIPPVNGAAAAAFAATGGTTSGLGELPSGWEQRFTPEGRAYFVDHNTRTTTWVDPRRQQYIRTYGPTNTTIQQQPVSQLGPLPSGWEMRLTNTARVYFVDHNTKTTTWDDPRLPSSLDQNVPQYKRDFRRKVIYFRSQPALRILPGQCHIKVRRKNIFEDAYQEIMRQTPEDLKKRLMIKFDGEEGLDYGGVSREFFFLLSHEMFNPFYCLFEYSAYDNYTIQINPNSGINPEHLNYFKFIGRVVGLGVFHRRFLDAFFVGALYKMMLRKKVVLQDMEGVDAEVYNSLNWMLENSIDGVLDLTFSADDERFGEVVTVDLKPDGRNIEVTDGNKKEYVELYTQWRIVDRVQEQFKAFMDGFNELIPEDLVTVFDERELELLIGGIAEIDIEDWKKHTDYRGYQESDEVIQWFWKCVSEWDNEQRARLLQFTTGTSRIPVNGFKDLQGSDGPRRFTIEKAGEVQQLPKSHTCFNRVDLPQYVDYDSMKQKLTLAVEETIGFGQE
UniProt Q04338: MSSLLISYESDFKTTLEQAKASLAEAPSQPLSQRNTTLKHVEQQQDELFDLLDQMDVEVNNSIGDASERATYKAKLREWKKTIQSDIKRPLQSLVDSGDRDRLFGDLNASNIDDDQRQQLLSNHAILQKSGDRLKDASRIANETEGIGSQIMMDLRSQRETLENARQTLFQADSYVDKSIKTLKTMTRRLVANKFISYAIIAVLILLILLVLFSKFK

No constants are given. Whether binding was seen depends on the method and setting. In cells and extracts the contact can be indirect. Some results given as binding are weak or reduced against the parent protein; the word gives no strength. For part of these data: Sequences can lack the tags named with a protein.

Test in all cases: cross-linking
The target in test [1] is T1, Ivy1 (Saccharomyces cerevisiae (endogenous in yeast vacuoles)) (UniProt Q04934).
T1 sequence: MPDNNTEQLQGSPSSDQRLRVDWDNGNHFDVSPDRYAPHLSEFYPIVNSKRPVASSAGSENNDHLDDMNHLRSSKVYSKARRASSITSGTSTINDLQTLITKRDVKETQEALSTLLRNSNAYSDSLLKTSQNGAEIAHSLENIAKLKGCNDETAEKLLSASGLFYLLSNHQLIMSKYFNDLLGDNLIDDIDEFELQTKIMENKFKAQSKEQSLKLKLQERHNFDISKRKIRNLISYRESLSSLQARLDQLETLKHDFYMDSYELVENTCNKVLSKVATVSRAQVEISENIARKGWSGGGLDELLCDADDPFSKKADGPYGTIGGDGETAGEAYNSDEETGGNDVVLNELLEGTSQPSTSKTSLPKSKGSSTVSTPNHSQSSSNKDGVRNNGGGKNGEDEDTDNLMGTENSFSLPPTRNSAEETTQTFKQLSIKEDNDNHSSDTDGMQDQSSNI

The target of test [2] is T2, Ssh4 (Saccharomyces cerevisiae (endogenous in yeast vacuoles)) (UniProt P32343).
T2 sequence: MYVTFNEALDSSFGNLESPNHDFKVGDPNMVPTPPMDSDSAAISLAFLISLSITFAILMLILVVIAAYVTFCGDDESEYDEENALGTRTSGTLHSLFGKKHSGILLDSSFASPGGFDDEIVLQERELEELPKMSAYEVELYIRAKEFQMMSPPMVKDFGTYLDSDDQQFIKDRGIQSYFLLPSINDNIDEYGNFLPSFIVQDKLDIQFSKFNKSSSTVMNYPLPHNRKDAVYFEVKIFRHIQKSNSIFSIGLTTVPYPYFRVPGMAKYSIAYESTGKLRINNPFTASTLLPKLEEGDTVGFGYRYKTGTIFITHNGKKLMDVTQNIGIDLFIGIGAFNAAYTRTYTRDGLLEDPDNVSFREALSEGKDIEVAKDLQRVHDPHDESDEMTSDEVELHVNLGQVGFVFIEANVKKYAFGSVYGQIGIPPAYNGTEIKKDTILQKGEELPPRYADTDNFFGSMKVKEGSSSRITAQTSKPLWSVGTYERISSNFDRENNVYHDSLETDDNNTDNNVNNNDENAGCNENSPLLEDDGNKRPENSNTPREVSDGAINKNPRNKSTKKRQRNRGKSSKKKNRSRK

Test [3] concerns the target T3, Nyv1 (Saccharomyces cerevisiae (endogenous in yeast vacuoles)) (UniProt Q12255).
T3 sequence: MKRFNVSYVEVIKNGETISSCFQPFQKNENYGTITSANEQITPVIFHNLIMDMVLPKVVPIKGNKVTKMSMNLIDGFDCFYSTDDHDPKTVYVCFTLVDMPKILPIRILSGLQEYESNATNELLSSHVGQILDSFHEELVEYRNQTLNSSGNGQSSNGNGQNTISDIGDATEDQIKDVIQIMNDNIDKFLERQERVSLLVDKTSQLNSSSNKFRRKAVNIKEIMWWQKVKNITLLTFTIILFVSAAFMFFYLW

Test [4] has as its target Vps16 (Saccharomyces cerevisiae (endogenous in yeast vacuoles)) (UniProt Q03308).
Test [5] has as its target T4, Sec17 (Saccharomyces cerevisiae (endogenous in yeast vacuoles)), P32602.
T4 chain: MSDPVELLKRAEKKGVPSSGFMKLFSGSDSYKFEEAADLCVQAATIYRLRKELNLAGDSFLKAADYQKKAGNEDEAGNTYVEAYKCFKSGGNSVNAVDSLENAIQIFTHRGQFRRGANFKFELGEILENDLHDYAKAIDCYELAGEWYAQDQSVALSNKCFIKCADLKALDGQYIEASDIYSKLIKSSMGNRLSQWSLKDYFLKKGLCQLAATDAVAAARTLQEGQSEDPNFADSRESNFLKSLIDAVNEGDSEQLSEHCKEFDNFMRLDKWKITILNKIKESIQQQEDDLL
As to conditions: remark: other sources report otherwise.

Test [6] concerns the target T5, Sec17 (Saccharomyces cerevisiae (endogenous in yeast vacuoles)) (UniProt P32602).
T5 sequence: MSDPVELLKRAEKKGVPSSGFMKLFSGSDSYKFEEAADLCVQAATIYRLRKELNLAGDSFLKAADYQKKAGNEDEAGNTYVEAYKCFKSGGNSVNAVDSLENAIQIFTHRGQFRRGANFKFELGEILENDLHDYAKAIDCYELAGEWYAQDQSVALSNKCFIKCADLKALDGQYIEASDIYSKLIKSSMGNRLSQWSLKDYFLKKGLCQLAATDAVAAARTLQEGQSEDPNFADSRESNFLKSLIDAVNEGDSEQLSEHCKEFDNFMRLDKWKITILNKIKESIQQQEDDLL

Test [7] deals with T6, Vam3 (Saccharomyces cerevisiae (endogenous in yeast vacuoles)) (UniProt Q12241).
T6 sequence: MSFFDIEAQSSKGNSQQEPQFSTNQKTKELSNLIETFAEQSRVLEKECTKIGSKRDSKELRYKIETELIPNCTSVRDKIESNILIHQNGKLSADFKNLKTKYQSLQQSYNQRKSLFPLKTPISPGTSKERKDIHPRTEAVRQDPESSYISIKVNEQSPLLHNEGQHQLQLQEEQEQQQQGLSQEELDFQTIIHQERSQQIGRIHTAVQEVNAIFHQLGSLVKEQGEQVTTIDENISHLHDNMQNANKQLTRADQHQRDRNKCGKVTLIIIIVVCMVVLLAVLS

For test [8], the target named is Vps33 (Saccharomyces cerevisiae (endogenous in yeast vacuoles)) (UniProt P20795).
Test [9] has as its target T7, Lcb4 (Saccharomyces cerevisiae (endogenous in yeast vacuoles)) (UniProt Q12246).
T7 sequence (chain, palmitoylated (site not printed)): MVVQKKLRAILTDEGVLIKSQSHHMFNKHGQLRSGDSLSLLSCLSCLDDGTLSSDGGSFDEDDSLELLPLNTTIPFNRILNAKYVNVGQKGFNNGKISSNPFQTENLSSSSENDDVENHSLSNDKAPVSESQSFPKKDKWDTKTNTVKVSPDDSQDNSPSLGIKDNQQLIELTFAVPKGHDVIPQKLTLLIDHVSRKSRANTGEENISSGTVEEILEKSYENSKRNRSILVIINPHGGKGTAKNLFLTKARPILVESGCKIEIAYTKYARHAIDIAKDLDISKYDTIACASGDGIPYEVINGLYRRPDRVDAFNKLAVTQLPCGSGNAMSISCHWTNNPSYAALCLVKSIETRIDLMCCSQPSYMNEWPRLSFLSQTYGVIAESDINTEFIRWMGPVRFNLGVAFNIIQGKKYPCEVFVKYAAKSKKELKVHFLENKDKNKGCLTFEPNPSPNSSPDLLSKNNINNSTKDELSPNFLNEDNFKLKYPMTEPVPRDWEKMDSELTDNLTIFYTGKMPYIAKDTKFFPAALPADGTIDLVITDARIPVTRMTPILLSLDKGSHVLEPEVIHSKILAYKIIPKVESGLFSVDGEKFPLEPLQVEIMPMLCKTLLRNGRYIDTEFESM

As to Ypt7 (from UniProt P32939 1-208), in test [1], the binding entry was “binds”.

In the case of “Rsp5 (from UniProt P39940 1-809) (enzyme)”, the binding entry in [2] is listed as “binds”.

Turning to Vti1 (from UniProt Q04338 1-217), in test [3], the binding entry is recorded as “binds”.

B1: Vam3 (protein, UniProt Q12241 1-283)
chain: MSFFDIEAQSSKGNSQQEPQFSTNQKTKELSNLIETFAEQSRVLEKECTKIGSKRDSKELRYKIETELIPNCTSVRDKIESNILIHQNGKLSADFKNLKTKYQSLQQSYNQRKSLFPLKTPISPGTSKERKDIHPRTEAVRQDPESSYISIKVNEQSPLLHNEGQHQLQLQEEQEQQQQGLSQEELDFQTIIHQERSQQIGRIHTAVQEVNAIFHQLGSLVKEQGEQVTTIDENISHLHDNMQNANKQLTRADQHQRDRNKCGKVTLIIIIVVCMVVLLAVLS
Take B1: the binding result in [4] and in test [3] was “binds” each time.

B2: Vam3, Q12241 1-283 (protein)
chain: MSFFDIEAQSSKGNSQQEPQFSTNQKTKELSNLIETFAEQSRVLEKECTKIGSKRDSKELRYKIETELIPNCTSVRDKIESNILIHQNGKLSADFKNLKTKYQSLQQSYNQRKSLFPLKTPISPGTSKERKDIHPRTEAVRQDPESSYISIKVNEQSPLLHNEGQHQLQLQEEQEQQQQGLSQEELDFQTIIHQERSQQIGRIHTAVQEVNAIFHQLGSLVKEQGEQVTTIDENISHLHDNMQNANKQLTRADQHQRDRNKCGKVTLIIIIVVCMVVLLAVLS
On to B2, for which the binding result in test [5] is recorded as “binds”.

B3: Ykt6 (protein, UniProt P36015 1-200)
chain: MRIYYIGVFRSGGEKALELSEVKDLSQFGFFERSSVGQFMTFFAETVASRTGAGQRQSIEEGNYIGHVYARSEGICGVLITDKEYPVRPAYTLLNKILDEYLVAHPKEEWADVTETNDALKMKQLDTYISKYQDPSQADAIMKVQQELDETKIVLHKTIENVLQRGEKLDNLVDKSESLTASSKMFYKQAKKSNSCCIIM
With B3, the binding result in [6] and in test [7] was “binds” throughout.

B4: Nyv1 (protein, UniProt Q12255 1-253)
chain: MKRFNVSYVEVIKNGETISSCFQPFQKNENYGTITSANEQITPVIFHNLIMDMVLPKVVPIKGNKVTKMSMNLIDGFDCFYSTDDHDPKTVYVCFTLVDMPKILPIRILSGLQEYESNATNELLSSHVGQILDSFHEELVEYRNQTLNSSGNGQSSNGNGQNTISDIGDATEDQIKDVIQIMNDNIDKFLERQERVSLLVDKTSQLNSSSNKFRRKAVNIKEIMWWQKVKNITLLTFTIILFVSAAFMFFYLW
Regarding B4, the binding entry in test [4] and in [8] was “binds” each time.

B5: Nyv1, Q12255 1-253 (protein)
chain: MKRFNVSYVEVIKNGETISSCFQPFQKNENYGTITSANEQITPVIFHNLIMDMVLPKVVPIKGNKVTKMSMNLIDGFDCFYSTDDHDPKTVYVCFTLVDMPKILPIRILSGLQEYESNATNELLSSHVGQILDSFHEELVEYRNQTLNSSGNGQSSNGNGQNTISDIGDATEDQIKDVIQIMNDNIDKFLERQERVSLLVDKTSQLNSSSNKFRRKAVNIKEIMWWQKVKNITLLTFTIILFVSAAFMFFYLW
Take B5: the binding result in [5] is recorded as “binds”.

B6: Akr1 (enzyme, UniProt P39010 1-764)
chain: MVNELENVPRASTLTNEEQTVDPSNNDSQEDISLGDSNEITSLASLKAIRSGNEEESGNEQVNHNDEAEEDPLLTRYHTACQRGDLATVKEMIHGKLLEVNNDGDSTEHITGLHWASINNRLSVVDFLVSQGADVNARAGALHATPLHWAARYGYVYIVDFLLKHGADPTMTDDQGFNLLHLSVNSSNIMLVLYVLFNVVSKGLLDIDCRDPKGRTSLLWAAYQGDSLTVAELLKFGASIKIADTEGFTPLHWGTVKGQPHVLKYLIQDGADFFQKTDTGKDCFAIAQEMNTVYSLREALTHSGFDYHGYPIKKWFKKSQHAKLVTFITPFLFLGIAFALFSHINPLFVIIVLFLLAIATNKGLNKFVLPSYGRMGVHNVTLLRSPLLSGVFFGTLLWVTIVWFFKVMPRTFSDEQYTNILMLVILVSVFYLFGQLVIMDPGCLPEETDHENVRQTISNLLEIGKFDTKNFCIETWIRKPLRSKFSPLNNAVVARFDHYCPWIFNDVGLKNHKAFIFFITLMESGIFTFLALCLEYFDELEDAHEDTSQKNGKCFILGASDLCSGLIYDRFVFLILLWALLQSIWVASLIFVQAFQICKGMTNTEFNVLMKESKSIGPDGLSFNENFNTTPEGFAPSIDPGEESNDTVLAPVPGSTIRKPRTCFGVCYAVTGMDQWLAVIKETIGIKDSTGHNVYSITSRIPTNYGWKRNVKDFWLTSDINAPLWRRILYPPSGSKALLNGIEVDYFKLYKLPNKDVEQGNDMV
Turning to B6, in test [9], the binding entry is on record as “binds”.
